Assay results taken from PubChem BioAssay AID1688 (National Center for Advancing Translational Sciences (NCATS), 2009).
Out of some 220,000 compounds screened, about 2,400 (1.1%) were called active. This list was built around the results that the source calls inconclusive (neither active nor inactive); the mix of calls is not that of the screen. Calls follow the shape of the dose curve; as a rule, active = well fitted inhibition curve with a large enough effect; inconclusive = small, poorly fitted or top-dose-only effect, or effect the other way; inactive = no such curve, though single readings can be large or run the other way. Potencies beside an inconclusive call are fits to weak or partial responses and may not hold up.

test: qHTS Multiplex Assay to Identify Dual Action Probes in a Cell Model of Huntington: Aggregate Formation (GFP); details: PC12 HttQ103-GFP aggregates, Acumen cytometry, 40 h; activity change, negative = inhibition: at 46.1 µM (top of the series) unless noted; also: nearly all actives have a fitted effect of over 60% in size
In short: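 Multiplexed with ATP-based cell death, this channel scores GFP aggregates in PC12 cells expressing inducible HTTex1-Q103-GFP. Induction used 100 nM tebufenozide; compounds were tested in concentration series.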
% is scaled to controls: 0 for no effect and ±100 for the full control effect; potency is read from the fitted curve at half-maximal effect.

Row | SMILES | Potency | activity change, negative = inhibition
1 | O=C(Nc1ccccn1)c1cccc(S(=O)(=O)N2CCCCC2)c1 | inconclusive: 35.5 µM [inhibitor, single point] | 
2 | Cc1ccc(-c2nc3cc(Br)cnc3nc2-c2ccc(C)cc2)cc1 | inconclusive: 15.8 µM [inhibitor, single point] | 
3 | CN1/C(=C\C(=O)COC(=O)c2ccc(O)c(O)c2)C(C)(C)c2ccccc21 | inconclusive: 12.6 µM [inhibitor, single point] | 
4 | c1ccc2c(c1)nnn2-c1ncnc2sc3c(c12)CCCC3 | inconclusive: 15.8 µM [inhibitor, single point] | 
5 | COc1ccc(CN(CCC(c2ccccc2)C2CCOC(C)(C)C2)C(C)=O)cc1 (stereo unspecified) | active: 12.6 µM | 
6 | COCC(=O)Nc1ccccc1C(=O)Nc1ccc(OC)cc1 | inactive | 
7 | CCOC(=O)C1(Cc2ccccc2)NC(c2ccccc2F)C2C(=O)N(CC)C(=O)C21 (stereo unspecified) | inconclusive: 35.5 µM [inhibitor, single point] | 
8 | O=C(CCn1nnc2ccccc21)Nc1nnc(Cc2ccccc2)s1 | inactive | 
9 | COc1ccccc1C(=O)NCC(=O)Nc1ccccc1 | active: 0.355 µM | 
10 | O=C(NC(=S)NNC(=O)c1cccs1)c1ccco1 | active: 11.2 µM | 
11 | Nc1cc(-c2ccccc2)ccc1O | inconclusive: 5.62 µM [activator, single point] | 
12 | O=C(Nc1ccc(SC(F)F)cc1)c1cccc2nc3ccccc3nc12 | inconclusive: 11.2 µM [inhibitor, single point] | 
13 | C=CCn1nnc2sc3c(c2c1=O)CCC(C)C3 (stereo unspecified) | inactive | 
14 | Cc1cccc(/C=N/NC(=O)c2cccc([N+](=O)[O-])c2)n1 | inconclusive: 35.5 µM [inhibitor, single point] | 
15 | COc1ccccc1NC(=O)N1CCC(C(=O)c2ccc(F)cc2)CC1 | inactive | 
16 | CC(C)N(C(=O)COC(=O)c1ccccc1C(=O)c1ccc(Cl)c([N+](=O)[O-])c1)C(C)C | inconclusive: 35.5 µM [inhibitor, single point] | 
17 | CSc1ccc(S(=O)(=O)NCc2ccccc2Cl)cc1 | inactive | 
18 | CC(C)(C)c1ccc(C(=O)CCCN2CCC(OC(c3ccccc3)c3ccccc3)CC2)cc1 | inconclusive: 28.2 µM [inhibitor, partial curve, poor fit] | 
19 | Cc1cc2ncn(/N=C/c3ccc([N+](=O)[O-])o3)c2cc1C | inconclusive: 35.5 µM [inhibitor, single point] | 
20 | COc1ccc(CN2C(=O)Cc3c2nc(N)c2c(N)nc(N4CCCCC4)c(C#N)c32)cc1 | inconclusive: 3.55 µM [inhibitor, single point] | 
21 | O=C1C=C(Nc2ccccc2)C(=O)c2ccccc21 | active: 11.2 µM | 
22 | Cn1c(=O)oc2cc(S(=O)(=O)N3CCCC(C(=O)NCCN4CCOCC4)C3)ccc21 (stereo unspecified) | inactive | 
23 | CN(C)c1nc(C(=O)NN)nc(N(C)C)n1 | inactive | 
24 | COc1ccccc1-n1cc(-c2ccc(Cl)cc2)[nH]c1=O | inactive | 
25 | CCOC(=O)CSc1nc(C)c(C(C)=O)cc1C(N)=O | inconclusive: 6.31 µM [activator, single point] | 
26 | CN(C)C(=O)c1ccc(NC(=O)c2cncc(Br)c2)cc1 | active: 15.8 µM | 

A draw from above in order of SMILES length, smallest number first:
Row | SMILES | Potency | activity change, negative = inhibition
24 | COc1ccccc1-n1cc(-c2ccc(Cl)cc2)[nH]c1=O | inactive | 
8 | O=C(CCn1nnc2ccccc21)Nc1nnc(Cc2ccccc2)s1 | inactive | 
14 | Cc1cccc(/C=N/NC(=O)c2cccc([N+](=O)[O-])c2)n1 | inconclusive: 35.5 µM [inhibitor, single point] | 
3 | CN1/C(=C\C(=O)COC(=O)c2ccc(O)c(O)c2)C(C)(C)c2ccccc21 | inconclusive: 12.6 µM [inhibitor, single point] | 
18 | CC(C)(C)c1ccc(C(=O)CCCN2CCC(OC(c3ccccc3)c3ccccc3)CC2)cc1 | inconclusive: 28.2 µM [inhibitor, partial curve, poor fit] | 
16 | CC(C)N(C(=O)COC(=O)c1ccccc1C(=O)c1ccc(Cl)c([N+](=O)[O-])c1)C(C)C | inconclusive: 35.5 µM [inhibitor, single point] | 

Carrying on.

Row | SMILES | Potency | activity change, negative = inhibition
27 | O=C(Nc1ccc(CN2CCOCC2)cc1)c1ccc(-c2ccc(Cl)cc2Cl)o1 | inconclusive: 35.5 µM [inhibitor, single point] | 
28 | Cc1ccc(C(=O)CC2(O)C(=O)N(CN3CCOCC3)c3ccccc32)cc1 (stereo unspecified) | inconclusive: 31.6 µM [inhibitor, single point] | 
29 | COC(=O)CN1C(=O)C(O)(CC(=O)c2ccc(C)cc2)c2cc(Br)ccc21 (stereo unspecified) | inactive | 
30 | CCc1cccc2c(C#N)cn(CC(=O)NCc3ccco3)c12 | inconclusive: 2.82 µM [inhibitor, partial curve] | 
31 | CC(=O)Cc1nsc(NC(=O)c2ccc(F)cc2)n1 |  | inactive: -5.35% [at 9.22 µM]
32 | Cc1ccc(-n2c(-c3nn(C)cc3Cl)n[nH]c2=S)cc1 | inactive | 
33 | C[C@@]12CCC=C[C@H]1[C@H](c1ccc(/C=C/c3ccccc3)cc1F)N(Cc1ccccc1)C2=O | inconclusive: 0.112 µM [activator, partial curve, poor fit] | 
34 | COc1ccc(NC(=O)CC2C(=O)N(c3cccc(OC)c3)C(=O)N2CCC(C)C)cc1 (stereo unspecified) | inactive | 
35 | O=C(c1ccco1)N1CCN(c2ncnc3scc(-c4cccs4)c23)CC1 | inconclusive: 22.4 µM [inhibitor, single point] | 
36 | Cc1ccc(NC(=O)Nc2ccc(F)c(Cl)c2)cc1 | inconclusive: 10 µM [inhibitor, single point] | 
37 | CCN(Cc1ccccc1)C(c1ccc(Cl)cc1)c1nnnn1C(C)(C)C (stereo unspecified) | inconclusive: 15.8 µM [inhibitor, single point] | 
38 | COC(=O)c1cc(OC)c(OC)cc1NC(=O)c1cc(OC)cc(OC)c1 | inconclusive: 0.562 µM [activator, single point] | 
39 | CC1CCN(S(=O)(=O)c2cccc(C(=O)N(Cc3ccccc3)c3ccccn3)c2)CC1 | active: 11.2 µM | 
40 | O=C(CCN1C(=O)/C(=C/C=C/c2ccccc2)SC1=S)Nc1nc2ccccc2s1 | inconclusive: 22.4 µM [activator, single point] | 
41 | CC1(C#CC[N+]2(C)CCCCC2)CCC2C(O1)c1ccccc1OC2(C)C (stereo unspecified) | inactive | 
42 | Cc1ccc(C2=CC(c3ccc(N(C)C)cc3)n3nnnc3N2)cc1 (stereo unspecified) | active: 10 µM | 
43 | Cc1nc(-c2ccc(C(=O)O)cc2)cs1 | inconclusive: 35.5 µM [inhibitor, partial curve, poor fit] | 
44 | Cn1c(-c2ccc(F)cc2)cnc1NCc1ccc(F)cc1 | inconclusive: 15.8 µM [inhibitor, single point] | 
45 | CN(Cc1ccccc1)Cc1nc2c(c(=O)n(C)c(=O)n2C)n1Cc1ccc(F)cc1 | inconclusive: 0.447 µM [inhibitor, single point] | 
46 | c1ccc(-c2nnc(OCC3CCCO3)c3ccccc23)cc1 (stereo unspecified) | inactive | 
47 | COCCNc1oc(-c2ccccc2Cl)nc1C#N | inconclusive: 3.16 µM [inhibitor, partial curve, poor fit] | 
48 | CCc1[nH]nc2c1C(C(C)C)C(C#N)=C(N)O2 (stereo unspecified) | active: 11.2 µM | 
49 | OCC1(CCOc2ccccc2)CCN(CCCn2cccn2)CC1 | inactive | 
50 | CC(C)(C)SCCNC(=O)/C=C/c1cccc([N+](=O)[O-])c1 | inactive | 
51 | O=c1[nH]c2ccccc2n1Cc1ccc(Cl)cc1 | inconclusive: 35.5 µM [inhibitor, single point] | 
52 | O=c1c2ccccc2nc(SCc2cccc(F)c2)n1Cc1ccco1 | inconclusive: 35.5 µM [inhibitor, single point] | 

Row | SMILES | Potency | activity change, negative = inhibition
53 | O=S(=O)(c1ccc(Oc2ccc(Br)cc2F)nc1)N1CCCCC1 | inconclusive: 35.5 µM [inhibitor, single point] | 
54 | COc1ccc(CNc2ccc(-c3ccccc3OC)nn2)cc1 | inactive | 
55 | N/C(=N\OC(=O)COc1ccc2ccccc2c1Br)c1cccnc1 | inconclusive: 0.562 µM [inhibitor, full curve, poor fit] | 
56 | CN1C(=S)SC(C)(C)C1/[N+]([O-])=C/c1cccnc1 (stereo unspecified) | inactive | 
57 | C#CCN1C(=O)C(O)(CC(=O)/C=C/c2ccco2)c2ccccc21 (stereo unspecified) | inactive | 
58 | CCOC(=O)c1c(-c2ccco2)csc1N | inactive | 
59 | C=CCN(CC(=O)Nc1c(C)cccc1CC)C(=O)SCCC | inactive | 
60 | Cc1cccc(-n2ncc3c(N)ncnc32)c1 | inconclusive: 35.5 µM [inhibitor, single point] | 
61 | COc1cccc(Cn2cnc3c(NS(=O)(=O)c4cccc(Cl)c4Cl)c(C)c(C)cc32)c1 | inconclusive: 15.8 µM [inhibitor, single point] | 
62 | COc1ccc(N/N=C(/C)c2cnnc(-c3ccccc3)n2)cc1 | inactive | 
63 | CC1CCCN(c2ccc(C(=O)NCCc3ccccc3)cn2)C1 (stereo unspecified) | inconclusive: 35.5 µM [inhibitor, single point] | 
64 | CCCCN1C2=C(C(=O)CC(C)(C)C2)C(c2ccccc2)C2=C1c1ccccc1C2=O (stereo unspecified) | inactive | 
65 | Cn1c(-[n+]2c(-c3ccccc3)cc(-c3ccccc3)cc2-c2ccccc2)nc2cc([N+](=O)[O-])ccc21 | inconclusive: 8.91 µM [inhibitor, partial curve] | 
66 | O=C1CN(C(=O)COc2ccc(Br)cc2Br)c2ccccc2N1 | inactive | 
67 | COC(=O)c1c(NC(=O)/C=C/C(=O)O)sc(Cc2ccccc2)c1C | inconclusive: 35.5 µM [activator, single point] | 
68 | CCN1C(=O)CC(N2CCN(c3ccc(C(=O)c4ccncc4)cc3)CC2)C1=O (stereo unspecified) | inconclusive: 35.5 µM [inhibitor, single point] | 
69 | CN(C(=O)c1cccs1)c1ccc(OCC(=O)Nc2ccc(C(=O)O)cc2)cc1 | inconclusive: 0.891 µM [activator, single point] | 
70 | c1ccc(CN2CCC(Nc3nc(-c4ccccc4)nc4ccccc34)CC2)cc1 | inconclusive: 35.5 µM [inhibitor, single point] | 
71 | Cc1cc(C)nc(N(C#N)CC(=O)c2ccccc2)n1 | inconclusive: 2 µM [inhibitor, single point] | 
72 | CSc1nnc(-c2cc3c(s2)-c2ccccc2CC3)o1 | inactive | 
73 | Cc1ccc(C(=O)c2cn[nH]c2-c2cc(Cl)ccc2O)cc1 | inconclusive: 35.5 µM [inhibitor, single point] | 
74 | O=C(/C=C/c1cccc(O)c1)c1cccnc1 | inactive | 
75 | S=c1nn[nH]n1C12CC3CC(CC(C3)C1)C2 | inactive | 
76 | NNc1ncnc2scc(-c3ccc(Cl)cc3)c12 | inconclusive: 15.8 µM [inhibitor, single point] | 
